According to PMC5026484:
No constants are given. Whether binding was seen depends on the method and setting.

Target: T1, bMERB domain (Rab binding domain) of Mical-1, residues 918-1067 (human) (UniProt Q8TDZ2)
T1 sequence: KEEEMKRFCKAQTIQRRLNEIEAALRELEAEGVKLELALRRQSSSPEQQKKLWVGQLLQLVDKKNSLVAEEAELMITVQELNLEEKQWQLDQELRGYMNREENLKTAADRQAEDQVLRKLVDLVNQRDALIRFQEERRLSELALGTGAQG
Assay: SEC; analytical size exclusion chromatography of the bMERB domain alone (112.5 µM); apparent size from the retention; both purified

With “bMERB domain (Rab binding domain) of Mical-1, residues 918-1067 (from UniProt Q8TDZ2 918-1067) (domain or fragment)” the binding was “no binding”.
